The supplement of paper PMC10663445
Counter-ions that a name gives are not always drawn. The list shows a part of the results. Single values are uncertain, as repeats are few or missing.

Tested on: hsa-miR-132-3p
Assay: miR-132-3p level in NGN2-iNs after compound treatment (TMM-normalised, ComBat batch-corrected) (batch-corrected normalised expression (arbitrary units)); higher = higher miR-132-3p expression
Conditions: 10 µM; 24 h; human iPSC-derived NGN2 neurons (BR43)

Row | SMILES | miR-132-3p level in NGN2-iNs
1 | O=C(NC1CCNCC1)c1n[nH]cc1NC(=O)c1c(Cl)cccc1Cl | 0.269
2 | CC(C)c1noc(N2CCC(COc3ccc(-c4ccc(S(C)(=O)=O)cc4)nc3)CC2)n1 | -1.35
3 | CCCC(CCC)C(=O)O [Valproic acid sodium salt (Sodium valproate)] | -0.0281
4 | CCCC(CCC)C(=O)O [Divalproex Sodium] | -0.38
5 | COc1ccccc1N1CCN(CCN2C(=O)CC3(CCCC3)CC2=O)CC1 [BMY 7378 Dihydrochloride] | 1.24
6 | OCC(O)CN1CCN(c2ccccc2)CC1 (stereo not drawn) [Dropropizine] | -0.495
7 | O[C@@H](COc1cccc2ncccc12)CN1CCN(C2c3ccccc3[C@@H]3[C@H](c4ccccc42)C3(F)F)CC1 (stereo partly drawn) | 0.152
8 | COC1=CC(=O)C[C@@H](C)[C@]12Oc1c(Cl)c(OC)cc(OC)c1C2=O [Griseofulvin] | -0.987
9 | Cc1ccc(-n2[nH]c(C)c(N=Nc3cccc(-c4cccc(C(=O)O)c4)c3O)c2=O)cc1C [Eltrombopag Olamine] | -0.0463
10 | NC1=N[C@@]2(c3cc(NC(=O)c4ccc(F)cn4)ccc3F)COC[C@H]2CS1 | -0.94
11 | COc1ccc(COc2cc3oc(=O)c4cc(C(C)O)ccc4c3cc2OC)cc1 (stereo not drawn) [Palomid 529 (P529)] | -0.297
12 | COc1ccc2cc1Oc1ccc(cc1)C[C@H]1c3c(cc4c(c3Oc3cc5c(cc3OC)CCN(C)[C@@H]5C2)OCO4)CCN1C [Cepharanthine] | -0.691
13 | CO[C@H]1C[C@@H]2CC[C@@H](C)[C@@](O)(O2)C(=O)C(=O)N2CCCC[C@H]2C(=O)O[C@H]([C@H](C)C[C@@H]2CC[C@@H](OP(C)(C)=O)[C@H](OC)C2)CC(=O)[C@H](C)/C=C(\C)[C@@H](O)[C@@H](OC)C(=O)[C@H](C)C[C@H](C)/C=C/C=C/C=C/1C [Ridaforolimus (Deforolimus, MK-8669)] | 0.258
14 | CC[C@@H]1C(=O)N(C)c2cnc(Nc3ccc(C(=O)NC4CCN(C)CC4)cc3OC)nc2N1C1CCCC1 | 0.0111
15 | Cc1c(OCC(F)(F)F)ccnc1C[S+]([O-])c1nc2ccccc2[nH]1 (stereo not drawn) [Lansoprazole] | -0.35
16 | Brc1c(NC2=NCCN2)ccc2nccnc12 [Brimonidine Tartrate] | -0.666
17 | N=C(N)N/N=C/c1c(Cl)cccc1Cl [Guanabenz Acetate] | -0.349
18 | CN(CCOc1ccc(CC2SC(=O)NC2=O)cc1)c1ccccn1 (stereo not drawn) [Rosiglitazone] | -1.71
19 | CC(N)C12CC3CC(CC(C3)C1)C2 (stereo not drawn) [Rimantadine] | -1.4
20 | COc1ccc(C[C@@H]2c3cc(OC)c(OC)cc3CC[N@+]2(C)CCC(=O)OCCCCCOC(=O)CC[N@@+]2(C)CCc3cc(OC)c(OC)cc3[C@H]2Cc2ccc(OC)c(OC)c2)cc1OC [Cisatracurium Besylate] | 0.502
21 | CCOC(=O)c1c(C)n(C)c2ccc(O)cc12 [Mecarbinate] | -1.11
22 | O=C(O)CC1CC(c2ccccc2)=NO1 (stereo not drawn) | -0.76
23 | Cn1c([N+](=O)[O-])cnc1COC(N)=O [Ronidazole] | 0.493
24 | O=C1C(Cc2ccc(O)cc2)N2C(=O)CCN(C(=O)NCc3ccccc3)C2CN1Cc1cccc2ccccc12 (stereo not drawn) [Foscenvivint (ICG-001)] | 0.347
25 | CCN(c1cc(-c2ccc(CN3CCOCC3)cc2)cc(C(=O)NCc2c(C)cc(C)[nH]c2=O)c1C)C1CCOCC1 [Tazemetostat (EPZ-6438)] | -0.847

Row | SMILES | miR-132-3p level in NGN2-iNs
26 | Cc1cc(Nc2nc(N[C@@H](C)c3ncc(F)cn3)ncc2Cl)[nH]n1 | -0.37
27 | COC[C@H](NC(=O)c1cnc(C)s1)C(=O)N[C@@H](COC)C(=O)N[C@@H](Cc1ccccc1)C(=O)[C@@]1(C)CO1 [Oprozomib (ONX 0912)] | 0.115
28 | CNC(=O)[C@H](Cc1ccccc1)NC(=O)[C@H](CC(C)C)[C@H](CSc1cccs1)C(=O)NO [Batimastat (BB-94)] | 0.838
29 | CCOC(=O)[C@H](CCc1ccccc1)N[C@@H](C)C(=O)N1CCC[C@H]1C(=O)O [Enalapril Maleate] | 0.985
30 | C=CC(=O)Nc1ccc2ncnc(Nc3ccc(OCc4cccc(F)c4)c(Cl)c3)c2c1 [Allitinib tosylate] | -0.548
31 | CC1=C(CC(=O)O)c2cc(F)ccc2/C1=C\c1ccc([S+](C)[O-])cc1 (stereo not drawn) [Sulindac] | -0.221
32 | CC(=O)N1CCN(CCOc2ccc(C3CCN(C4=Nn5c(nnc5C(F)(F)F)CC4)CC3)cc2)CC1 | 1.25
33 | C=CC(=O)N1CCC[C@@H](n2nc(-c3ccc(Oc4ccccc4)cc3)c3c(N)ncnc32)C1 | -0.98
34 | CCC[C@H](NC(=O)[C@@H]1[C@H]2CCC[C@H]2CN1C(=O)[C@@H](NC(=O)[C@@H](NC(=O)c1cnccn1)C1CCCCC1)C(C)(C)C)C(=O)C(=O)NC1CC1 [Telaprevir (VX-950)] | -2.76
35 | Cc1noc(NS(=O)(=O)c2ccc(N)cc2)c1C [Sulfisoxazole] | 0.0329
36 | CCc1cccc2c3c([nH]c12)C(CC)(CC(=O)O)OCC3 (stereo not drawn) [Etodolac] | -0.294
37 | OCC(O)C(O)CO (stereo not drawn) [Erythritol] | -0.542
38 | C[C@@H]1CN(CC(=O)Nc2ccc3c(c2)Cc2cccc(-c4cc(=O)cc(N5CCOCC5)o4)c2S3)C[C@H](C)O1 | -1.04
39 | OCCOCCN1CCN(C(c2ccccc2)c2ccc(Cl)cc2)CC1 (stereo not drawn) [Hydroxyzine 2HCl] | 0.56
40 | O=C(NS(=O)(=O)c1ccc(Br)s1)c1ccc(Cl)cc1Cl [Tasisulam] | 0.309
41 | [I-].[K+] [Potassium Iodide] | 0.73
42 | Cc1ccccc1N1C(=O)c2cc(S(N)(=O)=O)c(Cl)cc2NC1C (stereo not drawn) [Metolazone] | -0.0376
43 | O=C(Nc1ccc(-c2ccnc(Nc3ccc(N4CCOCC4)cc3)n2)cc1)C1CCCN1 (stereo not drawn) | -0.588
44 | COc1ccc2[nH]c([S+]([O-])Cc3ncc(C)c(OC)c3C)nc2c1 (stereo not drawn) [Omeprazole] | 0.783
45 | NC(=S)N/N=C/c1ncccc1N [Triapine] | -0.807
46 | Nc1cccc2c1CN(C1CCC(=O)NC1=O)C2=O (stereo not drawn) [Lenalidomide (CC-5013)] | 0.231
47 | C[C@]12CC[C@@H]3c4ccc(O)cc4CC[C@H]3[C@@H]1CCC2=O [Estrone] | 0.0752
48 | Nc1ncnc2c1c(-c1cccc(OCc3ccccc3)c1)cn2C1CC(CN2CCC2)C1 (stereo not drawn) | 0.027
49 | COc1cc(C(=O)NC2CCCNC2)cc(OC)c1OC (stereo not drawn) [Troxipide] | 1.23
50 | CCCCCCCCc1ccc(CCC(N)(CO)CO)cc1 [Fingolimod (FTY720) HCl] | 0.87

Row | SMILES | miR-132-3p level in NGN2-iNs
51 | O=NN(CCCl)C(=O)NC1CCCCC1 [Lomustine] | 0.148
52 | COc1cc(CCC(C)=O)ccc1O [Vanillylacetone] | 0.0303
53 | COc1cnc(NS(=O)(=O)c2ccc(N)cc2)nc1 [Sulfameter] | 1.08
54 | CC(C)c1cc(C(=O)N2Cc3ccc(CN4CCN(C)CC4)cc3C2)c(O)cc1O | 0.188
55 | COc1ccc(-c2cc(=O)c3c(O)cc(O[C@@H]4O[C@H](CO[C@@H]5O[C@@H](C)[C@H](O)[C@@H](O)[C@H]5O)[C@@H](O)[C@H](O)[C@H]4O)cc3o2)cc1O [Diosmin] | -0.712
56 | COc1cc(Nc2ncc(F)c(Nc3ccc4c(n3)N(COP(=O)(O)O)C(=O)C(C)(C)O4)n2)cc(OC)c1OC [Fostamatinib (R788)] | -0.925
57 | CCCCCCCN(CC)CCCC(O)c1ccc(NS(C)(=O)=O)cc1 (stereo not drawn) [Ibutilide Fumarate] | -0.319
58 | CC1(C)S[C@@H]2[C@H](NC(=O)[C@H](NC(=O)N3CCN(S(C)(=O)=O)C3=O)c3ccccc3)C(=O)N2[C@H]1C(=O)O [Mezlocillin Sodium] | -0.438
59 | Cn1cc(-c2ccc3nnc(C(F)(F)c4ccc5ncccc5c4)n3n2)cn1 | 0.797
60 | CCC(CC)CC1(C(=O)Nc2ccccc2SC(=O)C(C)C)CCCCC1 | 1.07
61 | CNC(=O)Nc1ccc(-c2nc(N3CC4CCC(C3)O4)c3cnn(C4CCC5(CC4)OCCO5)c3n2)cc1 | -1.11
62 | C[C@@H](CN1CC(=O)NC(=O)C1)N1CC(=O)NC(=O)C1 [Dexrazoxane HCl (ICRF-187, ADR-529)] | 0.549
63 | CC(=O)OCC(=O)[C@@]12N=C(C)O[C@@H]1C[C@H]1[C@@H]3CCC4=CC(=O)C=C[C@]4(C)[C@H]3[C@@H](O)C[C@@]12C [Deflazacort] | 2.36
64 | CCN1CC(CCN2CCOCC2)C(c2ccccc2)(c2ccccc2)C1=O (stereo not drawn) [Doxapram HCl] | -0.44
65 | CCC(=O)O[C@]1(C(=O)CCl)[C@@H](C)C[C@H]2[C@@H]3C[C@H](F)C4=CC(=O)C=C[C@]4(C)[C@@]3(F)[C@@H](O)C[C@@]21C [Halobetasol Propionate] | -0.901
66 | CC(=O)N[C@H]1[C@H]([C@H](O)[C@H](O)CO)OC(C(=O)O)=C[C@@H]1NC(=N)N [Zanamivir] | -0.152
67 | CCOC(=O)OC(C)OC1=C(C(=O)Nc2ccccn2)N(C)S(=O)(=O)c2ccccc21 (stereo not drawn) [Ampiroxicam] | -0.184
68 | O=C(Nc1c(Cl)cncc1Cl)c1ccc(OC(F)F)c(OCC2CC2)c1 [Roflumilast] | 3.08
69 | CCCS(=O)(=O)Nc1ccc(F)c(C(=O)c2c[nH]c3ncc(-c4ccc(Cl)cc4)cc23)c1F [Vemurafenib (PLX4032, RG7204)] | 1.36
70 | C[C@@H]1O[C@@H](O[C@H]2[C@H](Oc3cc(O)c(C(=O)CCc4ccc(O)cc4)c(O)c3)O[C@H](CO)[C@@H](O)[C@@H]2O)[C@H](O)[C@H](O)[C@H]1O [Naringin Dihydrochalcone] | 0.154
71 | O=S(=O)(O)CCS [Mesna] | -0.565
72 | Cc1nc(NC(=O)N2CCC[C@H]2C(N)=O)sc1-c1ccnc(C(C)(C)C(F)(F)F)c1 [Alpelisib (BYL719)] | -1.09
73 | CC(C)NCC(O)COc1cccc2ccccc12 (stereo not drawn) [Propranolol HCl] | 0.44

Quoted from above: entries 57 to 59
Row | SMILES | miR-132-3p level in NGN2-iNs
57 | CCCCCCCN(CC)CCCC(O)c1ccc(NS(C)(=O)=O)cc1 (stereo not drawn) [Ibutilide Fumarate] | -0.319
58 | CC1(C)S[C@@H]2[C@H](NC(=O)[C@H](NC(=O)N3CCN(S(C)(=O)=O)C3=O)c3ccccc3)C(=O)N2[C@H]1C(=O)O [Mezlocillin Sodium] | -0.438
59 | Cn1cc(-c2ccc3nnc(C(F)(F)c4ccc5ncccc5c4)n3n2)cn1 | 0.797
